# Data from the supplement of paper PMC8728848.
# The list shows a part of the results.
# How the values were obtained:
# Experiment in all cases: glycan array binding signal (z-score within array); higher = stronger binding
# Details in all cases: glycan notation: IUPAC condensed, linker removed
# Fuc(a1-2)Gal = target: Fuc(a1-2)Gal
# Summary of the method: (§1)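 Arrays were curated from the Consortium for Functional Glycomics database, 3228 in total, and kept only where the protein sequence was available. Binding is expressed as a within-array Z-score. This score was averaged across arrays of the same protein sequence at different concentrations or buffers and across linkers, and negative values can be read as non-binding.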
# Fuc(a1-2)Gal(b1-3)GalNAc = target: Fuc(a1-2)Gal(b1-3)GalNAc
# Summary of the method: as §1
# [1] = target: Fuc(a1-2)Gal(b1-3)GalNAc(a1-3)[Fuc(a1-2)]Gal(b1-4)Glc
# Summary of the method: as §1
# [2] = target: Fuc(a1-2)Gal(b1-3)GalNAc(a1-3)[Fuc(a1-2)]Gal(b1-4)GlcNAc
# Summary of the method: as §1
# [3] = target: Fuc(a1-2)Gal(b1-3)GalNAc(b1-3)Gal
# Summary of the method: as §1
# [4] = target: Fuc(a1-2)Gal(b1-3)GalNAc(b1-3)Gal(a1-4)Gal(b1-4)Glc
# Summary of the method: as §1
# [5] = target: Fuc(a1-2)Gal(b1-3)GalNAc(b1-4)[Neu5Ac(a2-3)]Gal(b1-4)Glc
# Summary of the method: as §1
# Fuc(a1-2)Gal(b1-3)GlcNAc = target: Fuc(a1-2)Gal(b1-3)GlcNAc
# Summary of the method: as §1
# [6] = target: Fuc(a1-2)Gal(b1-3)GlcNAc(b1-2)Man(a1-3)[Fuc(a1-2)Gal(b1-3)GlcNAc(b1-2)Man(a1-6)]Man(b1-4)GlcNAc(b1-4)GlcNAc
# Summary of the method: as §1
# [7] = target: Fuc(a1-2)Gal(b1-3)GlcNAc(b1-2)Man(a1-3)[Fuc(a1-2)Gal(b1-3)GlcNAc(b1-2)Man(a1-6)]Man(b1-4)GlcNAc(b1-4)[Fuc(a1-6)]GlcNAc
# Summary of the method: as §1
# [8] = target: Fuc(a1-2)Gal(b1-3)GlcNAc(b1-3)Gal(b1-4)Glc
# Summary of the method: as §1
# [9] = target: Fuc(a1-2)Gal(b1-3)GlcNAc(b1-3)GalNAc
# Summary of the method: as §1
# [10] = target: Fuc(a1-2)Gal(b1-3)GlcNAc(b1-3)[Fuc(a1-2)Gal(b1-3)GlcNAc(b1-6)]GalNAc
# Summary of the method: as §1
# [11] = target: Fuc(a1-2)Gal(b1-3)GlcNAc(b1-3)[Gal(b1-4)GlcNAc(b1-6)]Gal(b1-4)Glc
# Summary of the method: as §1
# [12] = target: Fuc(a1-2)Gal(b1-3)GlcNAc(b1-3)[Neu5Ac(a2-6)Gal(b1-4)GlcNAc(b1-6)]Gal(b1-4)Glc
# Summary of the method: as §1
# [13] = target: Fuc(a1-2)Gal(b1-3)GlcNAc6S
# Summary of the method: as §1
# [14] = target: Fuc(a1-2)Gal(b1-3)[Fuc(a1-4)]GlcNAc
# Summary of the method: as §1
# [15] = target: Fuc(a1-2)Gal(b1-3)[Fuc(a1-4)]GlcNAc(b1-2)Man(a1-3)[Fuc(a1-2)Gal(b1-3)[Fuc(a1-4)]GlcNAc(b1-2)Man(a1-3)]Man(b1-4)GlcNAc(b1-4)GlcNAc
# Summary of the method: as §1
# [16] = target: Fuc(a1-2)Gal(b1-3)[Fuc(a1-4)]GlcNAc(b1-2)Man(a1-3)[Fuc(a1-2)Gal(b1-3)[Fuc(a1-4)]GlcNAc(b1-2)Man(a1-6)]Man(b1-4)GlcNAc(b1-4)[Fuc(a1-6)]GlcNAc(b1-4)[Fuc(a1-6)]GlcNAc
# Summary of the method: as §1
# [17] = target: Fuc(a1-2)Gal(b1-3)[Fuc(a1-4)]GlcNAc(b1-3)[Fuc(a1-3)[Gal(b1-4)]GlcNAc(b1-6)]Gal(b1-4)Glc
# Summary of the method: as §1
# [18] = target: Fuc(a1-2)Gal(b1-3)[Fuc(a1-4)]GlcNAc(b1-3)[Gal(b1-4)GlcNAc(b1-6)]Gal(b1-4)Glc
# Summary of the method: as §1
# [19] = target: Fuc(a1-2)Gal(b1-4)Fuc(a1-3)]GlcNAc(b1-2)Man(a1-3)[Fuc(a1-2)Gal(b1-4)[Fuc(a1-3)]GlcNAc(b1-2)Man(a1-6)]Man(b1-4)GlcNAc(b1-4)GlcNAc
# Summary of the method: as §1
# Fuc(a1-2)Gal(b1-4)Glc = target: Fuc(a1-2)Gal(b1-4)Glc
# Summary of the method: as §1
# Fuc(a1-2)Gal(b1-4)Glc6S = target: Fuc(a1-2)Gal(b1-4)Glc6S
# Summary of the method: as §1
# Fuc(a1-2)Gal(b1-4)GlcNAc = target: Fuc(a1-2)Gal(b1-4)GlcNAc
# Summary of the method: as §1
# [20] = target: Fuc(a1-2)Gal(b1-4)GlcNAc(b1-2)Man
# Summary of the method: as §1
# [21] = target: Fuc(a1-2)Gal(b1-4)GlcNAc(b1-2)Man(a1-3)[Fuc(a1-2)Gal(b1-4)GlcNAc(b1-2)Man(a1-6)]Man(b1-4)GlcNAc(b1-4)GlcNAc
# Summary of the method: as §1
# [22] = target: Fuc(a1-2)Gal(b1-4)GlcNAc(b1-2)Man(a1-3)[Fuc(a1-2)Gal(b1-4)GlcNAc(b1-2)Man(a1-6)]Man(b1-4)GlcNAc(b1-4)[Fuc(a1-6)]GlcNAc
# Summary of the method: as §1
# [23] = target: Fuc(a1-2)Gal(b1-4)GlcNAc(b1-2)[Fuc(a1-2)Gal(b1-4)GlcNAc(b1-4)]Man(a1-3)[Fuc(a1-2)Gal(b1-4)GlcNAc(b1-2)Man(a1-6)]Man(b1-4)GlcNAc(b1-4)GlcNAc
# Summary of the method: as §1
# [24] = target: Fuc(a1-2)Gal(b1-4)GlcNAc(b1-3)Gal(b1-4)GlcNAc
# Summary of the method: as §1
# [25] = target: Fuc(a1-2)Gal(b1-4)GlcNAc(b1-3)Gal(b1-4)GlcNAc(b1-2)Man(a1-3)[Fuc(a1-2)Gal(b1-4)GlcNAc(b1-3)Gal(b1-4)GlcNAc(b1-2)Man(a1-6)]Man(b1-4)GlcNAc(b1-4)GlcNAc
# Summary of the method: as §1
# [26] = target: Fuc(a1-2)Gal(b1-4)GlcNAc(b1-3)Gal(b1-4)GlcNAc(b1-3)Gal(b1-4)GlcNAc
# Summary of the method: as §1
# [27] = target: Fuc(a1-2)Gal(b1-4)GlcNAc(b1-3)GalNAc
# Summary of the method: as §1
# [28] = target: Fuc(a1-2)Gal(b1-4)GlcNAc(b1-3)[Fuc(a1-2)Gal(b1-4)GlcNAc(b1-6)]GalNAc
# Summary of the method: as §1
# [29] = target: Fuc(a1-2)Gal(b1-4)GlcNAc(b1-3)[Fuc(a1-3)[Gal(b1-4)]GlcNAc(b1-6)]Gal(b1-4)Glc
# Summary of the method: as §1
# [30] = target: Fuc(a1-2)Gal(b1-4)GlcNAc(b1-6)GalNAc
# Summary of the method: as §1
# [31] = target: Fuc(a1-2)Gal(b1-4)GlcNAc6S
# Summary of the method: as §1
binder,measurement,setting,value
Drgal1 (Danio rerio) (protein) MAGVLIQNMSFKVGQTLTITGVPKPDSTNFAINIGHSPEDIALHMNPRFDAHGDQCTIVCNSFQSGSWCEEHRDDNFPFIQDKEFQIKITFTNEEFLVTLPDGSEIHFPNRQGSEKYKYMYFEGEVRIQGVEIK,glycan array binding signal (z-score),Fuc(a1-2)Gal,-0.138
same,glycan array binding signal (z-score),Fuc(a1-2)Gal(b1-3)GalNAc,-0.255
same,glycan array binding signal (z-score),[1],-0.59
same,glycan array binding signal (z-score),[2],-0.433
same,glycan array binding signal (z-score),[3],-0.176
same,glycan array binding signal (z-score),[4],-0.101
same,glycan array binding signal (z-score),[5],-0.367
same,glycan array binding signal (z-score),Fuc(a1-2)Gal(b1-3)GlcNAc,-0.486
same,glycan array binding signal (z-score),[6],0.528
same,glycan array binding signal (z-score),[7],0.673
same,glycan array binding signal (z-score),[8],-0.304
same,glycan array binding signal (z-score),[9],-0.612
same,glycan array binding signal (z-score),[10],-0.218
same,glycan array binding signal (z-score),[11],-0.134
same,glycan array binding signal (z-score),[12],-0.466
same,glycan array binding signal (z-score),[13],-0.452
same,glycan array binding signal (z-score),[14],-0.637
same,glycan array binding signal (z-score),[15],-0.29
same,glycan array binding signal (z-score),[16],-0.396
same,glycan array binding signal (z-score),[17],-0.415
same,glycan array binding signal (z-score),[18],0.383
same,glycan array binding signal (z-score),[19],0.914
same,glycan array binding signal (z-score),Fuc(a1-2)Gal(b1-4)Glc,-0.299
same,glycan array binding signal (z-score),Fuc(a1-2)Gal(b1-4)Glc6S,-0.543
same,glycan array binding signal (z-score),Fuc(a1-2)Gal(b1-4)GlcNAc,-0.353
same,glycan array binding signal (z-score),[20],-0.09
same,glycan array binding signal (z-score),[21],0.669
same,glycan array binding signal (z-score),[22],-0.202
same,glycan array binding signal (z-score),[23],-0.434
same,glycan array binding signal (z-score),[24],-0.642
same,glycan array binding signal (z-score),[25],1.25
same,glycan array binding signal (z-score),[26],0.077
same,glycan array binding signal (z-score),[27],0.016
same,glycan array binding signal (z-score),[28],-0.246
same,glycan array binding signal (z-score),[29],-0.404
same,glycan array binding signal (z-score),[30],-0.575
same,glycan array binding signal (z-score),[31],-0.48

# Pulled one by one from the entries so far (2):
binder,measurement,setting,value
Drgal1 (Danio rerio) (protein) MAGVLIQNMSFKVGQTLTITGVPKPDSTNFAINIGHSPEDIALHMNPRFDAHGDQCTIVCNSFQSGSWCEEHRDDNFPFIQDKEFQIKITFTNEEFLVTLPDGSEIHFPNRQGSEKYKYMYFEGEVRIQGVEIK,glycan array binding signal (z-score),[10],-0.218
same,glycan array binding signal (z-score),[17],-0.415
